Measured values from PMC5736349.

How the values were obtained:
Experiment in all cases: co-IP; DAOY cells transfected for 48 hr with Atoh1-GFP WT, Y78F or Y78D and E47-FLAG or E2.2-FLAG; n = 3
Atoh1-GFP Y78D (mouse) = molecular target: T1, Atoh1-GFP Y78D (mouse) (UniProt P48985)
T1 sequence: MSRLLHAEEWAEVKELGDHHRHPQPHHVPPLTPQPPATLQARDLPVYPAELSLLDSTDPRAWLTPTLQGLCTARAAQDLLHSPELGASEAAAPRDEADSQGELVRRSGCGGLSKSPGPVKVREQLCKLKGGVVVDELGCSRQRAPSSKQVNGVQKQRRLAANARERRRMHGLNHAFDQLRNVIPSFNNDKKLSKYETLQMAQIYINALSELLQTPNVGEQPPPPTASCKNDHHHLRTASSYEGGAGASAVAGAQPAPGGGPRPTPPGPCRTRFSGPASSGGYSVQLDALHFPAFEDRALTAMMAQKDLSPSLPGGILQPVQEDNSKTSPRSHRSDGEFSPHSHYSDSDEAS

Atoh1-GFP WT (mouse) = molecular target: T2, Atoh1-GFP WT (mouse) (UniProt P48985)
T2 sequence: T1 sequence with D78Y

Atoh1-GFP Y78F (mouse) = molecular target: T3, Atoh1-GFP Y78F (mouse) (UniProt P48985)
T3 sequence: T1 sequence with D78F

Measured: binding

E47-FLAG (from UniProt P15806-2)
binds: Atoh1-GFP Y78D (mouse) | Atoh1-GFP WT (mouse) | Atoh1-GFP Y78F (mouse)

Substitutions are numbered along the chain they refer to. Results are given in words; binding and its absence hold for the method and conditions named. In cells and extracts the contact can be indirect. Binding calls can cover weak binding; strength is not graded here. Where a sequence is shown, tags or fusion partners need not be part of it.
